Results are given in words; binding and its absence hold for the method and conditions named. Some results given as binding are weak or reduced against the parent protein; the word gives no strength. Sequences can lack the tags named with a protein.
Tests used:
BMP-2 (human) [1] = target: T1, BMP-2 (human) (UniProt P12643); experiment: RGMa.Fc with 125I-BMP-2 overnight in solution, protein A coated plates
T1 sequence (iodinated with 125I where used as tracer, looked up): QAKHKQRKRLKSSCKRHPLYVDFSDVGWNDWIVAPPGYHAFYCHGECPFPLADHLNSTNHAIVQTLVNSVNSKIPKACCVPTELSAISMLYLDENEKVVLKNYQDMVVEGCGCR

BMP-2 (human) [2] = target: T1, BMP-2 (human); experiment: 10 ng RGMa.Fc with 125I-BMP-2 in solution, protein A coated plates
BMP-4 (human) [3] = target: T2, BMP-4 (human) (UniProt P12644); experiment: legend of FIGS. 34A and 34B
T2 sequence (iodinated with 125I where used as tracer, looked up): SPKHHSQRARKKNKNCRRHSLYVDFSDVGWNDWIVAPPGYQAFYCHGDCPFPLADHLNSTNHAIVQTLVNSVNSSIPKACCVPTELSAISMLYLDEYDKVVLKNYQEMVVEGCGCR

BMP-2 (human) [4] = target: T1, BMP-2 (human); experiment: legend of FIGS. 34A and 34B
BMP-4 (human) [5] = target: T2, BMP-4 (human); experiment: RGMa.Fc with 125I-BMP-4 in solution, protein A coated plates
BMP-2 (human) [6] = target: T1, BMP-2 (human); experiment: DSS crosslinking, protein A pull-down, non-reducing SDS-PAGE, α-RGMa Western blot
BMP-4 (human) [7] = target: T2, BMP-4 (human); experiment: DSS crosslinking in solution, protein A beads, autoradiography
BMP-2 (human) [8] = target: T1, BMP-2 (human); experiment: as above
[9] = target: T3, RGMa.Fc fusion protein (extracellular domain of murine RGMa fused to the Fc portion of human IgG) (mouse; human) (UniProt Q6PCX7); experiment: competition with 125I-BMP-2 for RGMa.Fc, protein A plate capture
T3 sequence (looked up): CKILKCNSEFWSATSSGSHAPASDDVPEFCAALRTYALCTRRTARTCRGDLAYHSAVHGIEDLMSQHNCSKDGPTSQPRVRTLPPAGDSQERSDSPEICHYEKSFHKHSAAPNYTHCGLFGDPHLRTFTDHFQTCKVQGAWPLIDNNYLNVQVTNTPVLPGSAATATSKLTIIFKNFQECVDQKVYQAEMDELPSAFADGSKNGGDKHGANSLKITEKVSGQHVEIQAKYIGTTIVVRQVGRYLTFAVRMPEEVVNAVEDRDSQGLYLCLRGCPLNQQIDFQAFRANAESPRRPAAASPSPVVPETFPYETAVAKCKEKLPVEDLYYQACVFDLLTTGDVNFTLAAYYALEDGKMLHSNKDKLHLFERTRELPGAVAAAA

Measured: binding

B1: RGMa.Fc fusion protein (extracellular domain of murine RGMa fused to the Fc portion of human IgG) (Fc fusion, mouse, UniProt Q6PCX7 48-427, looked up, not shown: a dimerising Fc or GST)
chain: CKILKCNSEFWSATSSGSHAPASDDVPEFCAALRTYALCTRRTARTCRGDLAYHSAVHGIEDLMSQHNCSKDGPTSQPRVRTLPPAGDSQERSDSPEICHYEKSFHKHSAAPNYTHCGLFGDPHLRTFTDHFQTCKVQGAWPLIDNNYLNVQVTNTPVLPGSAATATSKLTIIFKNFQECVDQKVYQAEMDELPSAFADGSKNGGDKHGANSLKITEKVSGQHVEIQAKYIGTTIVVRQVGRYLTFAVRMPEEVVNAVEDRDSQGLYLCLRGCPLNQQIDFQAFRANAESPRRPAAASPSPVVPETFPYETAVAKCKEKLPVEDLYYQACVFDLLTTGDVNFTLAAYYALEDGKMLHSNKDKLHLFERTRELPGAVAAAA
not listed: [9]
binds: all other assays above

B2: BMP-4 (ligand, human, UniProt P12644 293-408, looked up)
chain: SPKHHSQRARKKNKNCRRHSLYVDFSDVGWNDWIVAPPGYQAFYCHGDCPFPLADHLNSTNHAIVQTLVNSVNSSIPKACCVPTELSAISMLYLDEYDKVVLKNYQEMVVEGCGCR
modifications: iodinated with 125I where used as tracer
binds: [9]

Reference: US20060063208A1
